Laboratory results reported in patent US20070041978A1.
These are yes or no findings as the source states them, for the method shown. Some entries that bind do so weakly or less than the wild type.

Amino acid sequences for entries named in this document (tags omitted). Residues count along the entry.
UniProt P00742, residues 183-234: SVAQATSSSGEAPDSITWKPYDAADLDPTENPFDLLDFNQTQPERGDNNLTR

Molecular target: fusion protein of F.X activated peptide (AP) with glutathione S transferase (GST) (human) (UniProt P00742)
Test: Western blotting of GST-AP (E. coli lysate, SDS-PAGE, Immobilon-P membrane), antibody at 2 µg/mL

binding: binds
B1: anti-F.X mouse antibody SB04 (antibody, V domains shown)
VH: QVQLQQSGPELVKPGASVKMSCKASGYTFTHFVLHWVKQNPGQGLEWIGYIIPYNDGTKYNEKFKGKATLTSDKSSSTAYMELSSLTSEDSAVYYCARGNRYDVGSYAMDYWGQGTSVTVSS
VL: DIVMTQSPSSLAVSVGEKVTMSCKSSQSLLYSSNQKNYLAWYQQKPGQSPKLLIYWASTRESGVPDRFTGSGSGTDFTLTISSVKAEDLAVYLCQQYYRFPYTFGGGTKLEIKR
